# Test results: the supplement of paper PMC8728848
# Some of the results follow.
# How the values were obtained:
# Experiment in all cases: glycan array binding signal (z-score within array); higher = stronger binding
# Conditions in all cases: glycan notation: IUPAC condensed, linker removed
# [1] = molecular target: Fuc(a1-2)Gal
# In short: (§1)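 Arrays were curated from the Consortium for Functional Glycomics database, 3228 in total, and kept only where the protein sequence was available. Binding is expressed as a within-array Z-score. This score was averaged across arrays of the same protein sequence at different concentrations or buffers and across linkers, and negative values can be read as non-binding.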
# [2] = molecular target: Fuc(a1-2)Gal(b1-3)GalNAc
# In short: as §1
# [3] = molecular target: Fuc(a1-2)Gal(b1-3)GalNAc(a1-3)[Fuc(a1-2)]Gal(b1-4)Glc
# In short: as §1
# [4] = molecular target: Fuc(a1-2)Gal(b1-3)GalNAc(a1-3)[Fuc(a1-2)]Gal(b1-4)GlcNAc
# In short: as §1
# [5] = molecular target: Fuc(a1-2)Gal(b1-3)GalNAc(b1-3)Gal
# In short: as §1
# [6] = molecular target: Fuc(a1-2)Gal(b1-3)GalNAc(b1-3)Gal(a1-4)Gal(b1-4)Glc
# In short: as §1
# [7] = molecular target: Fuc(a1-2)Gal(b1-3)GalNAc(b1-4)[Neu5Ac(a2-3)]Gal(b1-4)Glc
# In short: as §1
# [8] = molecular target: Fuc(a1-2)Gal(b1-3)GlcNAc
# In short: as §1
# [9] = molecular target: Fuc(a1-2)Gal(b1-3)GlcNAc(b1-2)Man(a1-3)[Fuc(a1-2)Gal(b1-3)GlcNAc(b1-2)Man(a1-6)]Man(b1-4)GlcNAc(b1-4)GlcNAc
# In short: as §1
# [10] = molecular target: Fuc(a1-2)Gal(b1-3)GlcNAc(b1-2)Man(a1-3)[Fuc(a1-2)Gal(b1-3)GlcNAc(b1-2)Man(a1-6)]Man(b1-4)GlcNAc(b1-4)[Fuc(a1-6)]GlcNAc
# In short: as §1
# [11] = molecular target: Fuc(a1-2)Gal(b1-3)GlcNAc(b1-3)Gal(b1-4)Glc
# In short: as §1
# [12] = molecular target: Fuc(a1-2)Gal(b1-3)GlcNAc(b1-3)GalNAc
# In short: as §1
# [13] = molecular target: Fuc(a1-2)Gal(b1-3)GlcNAc(b1-3)[Fuc(a1-2)Gal(b1-3)GlcNAc(b1-6)]GalNAc
# In short: as §1
# [14] = molecular target: Fuc(a1-2)Gal(b1-3)GlcNAc(b1-3)[Fuc(a1-3)[Gal(b1-4)]GlcNAc(b1-6)]Gal(b1-4)Glc
# In short: as §1
# [15] = molecular target: Fuc(a1-2)Gal(b1-3)GlcNAc(b1-3)[Gal(b1-4)GlcNAc(b1-6)]Gal(b1-4)Glc
# In short: as §1
# [16] = molecular target: Fuc(a1-2)Gal(b1-3)GlcNAc(b1-3)[Neu5Ac(a2-6)Gal(b1-4)GlcNAc(b1-6)]Gal(b1-4)Glc
# In short: as §1
# [17] = molecular target: Fuc(a1-2)Gal(b1-3)GlcNAc6S
# In short: as §1
# [18] = molecular target: Fuc(a1-2)Gal(b1-3)[Fuc(a1-4)]GlcNAc
# In short: as §1
# [19] = molecular target: Fuc(a1-2)Gal(b1-3)[Fuc(a1-4)]GlcNAc(b1-2)Man(a1-3)[Fuc(a1-2)Gal(b1-3)[Fuc(a1-4)]GlcNAc(b1-2)Man(a1-6)]Man(b1-4)GlcNAc(b1-4)GlcNAc
# In short: as §1
# [20] = molecular target: Fuc(a1-2)Gal(b1-3)[Fuc(a1-4)]GlcNAc(b1-2)Man(a1-6)[Fuc(a1-2)Gal(b1-3)[Fuc(a1-4)]GlcNAc(b1-2)Man(a1-3)]Man(b1-4)GlcNAc(b1-4)[Fuc(a1-6)]GlcNAc
# In short: as §1
# [21] = molecular target: Fuc(a1-2)Gal(b1-3)[Fuc(a1-4)]GlcNAc(b1-3)[Fuc(a1-3)[Gal(b1-4)]GlcNAc(b1-6)]Gal(b1-4)Glc
# In short: as §1
# [22] = molecular target: Fuc(a1-2)Gal(b1-3)[Fuc(a1-4)]GlcNAc(b1-3)[Gal(b1-4)GlcNAc(b1-6)]Gal(b1-4)Glc
# In short: as §1
binder,measurement,setting,value
"Latrophilin-3 (Homo sapiens), Q9HAR2 (protein) MWPSQLLIFMMLLAPIIHAFSRAPIPMAVVRRELSCESYPIELRCPGTDVIMIESANYGRTDDKICDSDPAQMENIRCYLPDAYKIMSQRCNNRTQCAVVAGPDVFPDPCPGTYKYLEVQYECVPYKVEQKVFLCPGLLKGVYQSEHLFESDHQSGAWCKDPLQASDKIYYMPWTPYRTDTLTEYSSKDDFIAGRPTTTYKLPHRVDGTGFVVYDGALFFNKERTRNIVKFDLRTRIKSGEAIIANANYHDTSPYRWGGKSDIDLAVDENGLWVIYATEQNNGKIVISQLNPYTLRIEGTWDTAYDKRSASNAFMICGILYVVKSVYEDDDNEATGNKIDYIYNTDQSKDSLVDVPFPNSYQYIAAVDYNPRDNLLYVWNNYHVVKYSLDFGPLDSRSGQAHHGQVSYISPPIHLDSELERPSVKDISTTGPLGMGSTTTSTTLRTTTLSPGRSTTPSVSGRRNRSTSTPSPAVEVLDDMTTHLPSASSQIPALEESCEAVEAREIMWFKTRQGQIAKQPCPAGTIGVSTYLCLAPDGIWDPQGPDLSNCSSPWVNHITQKLKSGETAANIARELAEQTRNHLNAGDITYSVRAMDQLVGLLDVQLRNLTPGGKDSAARSLNKAMVETVNNLLQPQALNAWRDLTTSDQLRAATMLLHTVEESAFVLADNLLKTDIVRENTDNIKLEVARLSTEGNLEDLKFPENMGHGSTIQLSANTLKQNGRNGEIRVAFVLYNNLGPYLSTENASMKLGTEALSTNHSVIVNSPVITAAINKEFSNKVYLADPVVFTVKHIKQSEENFNPNCSFWSYSKRTMTGYWSTQGCRLLTTNKTHTTCSCNHLTNFAVLMAHVEVKHSDAVHDLLLDVITWVGILLSLVCLLICIFTFCFFRGLQSDRNTIHKNLCISLFVAELLFLIGINRTDQPIACAVFAALLHFFFLAAFTWMFLEGVQLYIMLVEVFESEHSRRKYFYLVGYGMPALIVAVSAAVDYRSYGTDKVCWLRLDTYFIWSFIGPATLIIMLNVIFLGIALYKMFHHTAILKPESGCLDNIKSWVIGAIALLCLLGLTWAFGLMYINESTVIMAYLFTIFNSLQGMFIFIFHCVLQKKVRKEYGKCLRTHCCSGKSTESSIGSGKTSGSRTPGRYSTGSQSRIRRMWNDTVRKQSESSFITGDINSSASLNREGLLNNARDTSVMDTLPLNGNHGNSYSIASGEYLSNCVQIIDRGYNHNETALEKKILKELTSNYIPSYLNNHERSSEQNRNLMNKLVNNLGSGREDDAIVLDDATSFNHEESLGLELIHEESDAPLLPPRVYSTENHQPHHYTRRRIPQDHSESFFPLLTNEHTEDLQSPHRDSLYTSMPTLAGVAATESVTTSTQTEPPPAKCGDAEDVYYKSMPNLGSRNHVHQLHTYYQLGRGSSDGFIVPPNKDGTPPEGSSKGPAHLVTSL",glycan array binding signal (z-score),[1],0.041
same,glycan array binding signal (z-score),[2],-0.639
same,glycan array binding signal (z-score),[3],0.661
same,glycan array binding signal (z-score),[4],-1.01
same,glycan array binding signal (z-score),[5],-0.64
same,glycan array binding signal (z-score),[6],-0.106
same,glycan array binding signal (z-score),[7],-0.493
same,glycan array binding signal (z-score),[8],-0.169
same,glycan array binding signal (z-score),[9],-0.156
same,glycan array binding signal (z-score),[10],-0.243
same,glycan array binding signal (z-score),[11],-0.869
same,glycan array binding signal (z-score),[12],0.261
same,glycan array binding signal (z-score),[13],-0.608
same,glycan array binding signal (z-score),[14],-0.264
same,glycan array binding signal (z-score),[15],-0.734
same,glycan array binding signal (z-score),[16],1.49
same,glycan array binding signal (z-score),[17],-0.694
same,glycan array binding signal (z-score),[18],-0.277
same,glycan array binding signal (z-score),[19],1.09
same,glycan array binding signal (z-score),[20],1.64
same,glycan array binding signal (z-score),[21],1.12
same,glycan array binding signal (z-score),[22],1.73
